Patent US20170260279A1
These are yes or no findings as the source states them, for the method shown. Some binding calls cover weakened binding; strength is not graded here.

Tests used:
[1] = target: Recombinant Human OX40L (Leader sequence, Isoleucine Zipper and FLAG Sequence Included) (human); assay: SPR (ProteOn XPR36), antibody captured, OX40L at 256 nM; off-rate could not be resolved
[2] = target: Recombinant Rhesus OX40L (Leader Sequence, FLAG and Isoleucine zipper included) (Rhesus (Macaca mulatta)); assay: SPR (ProteOn XPR36), antibody captured, rhesus OX40L at 256 nM; off-rate could not be resolved
[3] = target: Recombinant Human OX40L (Leader sequence, Isoleucine Zipper and FLAG Sequence Included) (human); assay: HTRF receptor neutralisation (grade): antibody titrated against biotinylated hOX40L / OX40R-Fc-AF647

Measured: binding

B1: 10A07 (human) (antibody, human IgG4 S228P, kappa, V domains shown)
VH: EVQLVESGGVLVQPGGSLRLSCAASGFTFSSYIMTWVRQAPGKGLEWVSGISGSGGGTYYADSMKGRFTISRDNSKNTLYLQMNSLRVEDTAVYYCAKDRLGPITLVRGGYYYGMDVWGQGTTVTVSS
VL: DIQMTQSPSSLSASVGDRVTITCRASQSISDYLNWYQQKPGKAPKFLIYAASSLQSGVPSRFSGSGSGTDFTLTVSSLQPEDFATYYCQQSYSTPRTFGQGTRVEIKR
binds: all assays above
